Experimental data as given in US20230293647A1.
Results are given in words; binding and its absence hold for the method and conditions named. Some entries that bind do so weakly or less than the wild type.

Molecular target: SARS-CoV-2 Spike protein, S1 subunit (recombinant) (SARS-CoV-2) (UniProt P0DTC2)
Assay: screening ELISA of dAb supernatants, anti-c-Myc HRP, n3

B1: Clone 9 (VHH)
VHH: QVQLQESGGGLVQAGDSLRLSCAASGRTSDTMTIGWFRQAPGKEREFVASINWSGSTTYYADSVNERFTISRDDAKNTVYLQMNSLKPEDTAVYYCAAKRGVWTIKSAAADFASWGQGTQVTVSS
With B1 the binding was “binds”.
